Results are given in words; binding and its absence hold for the method and conditions named. Binding seen in cells or lysates may run through a third protein. Some entries that bind do so weakly or less than the wild type. Tags and fused reporters may be left off the sequences shown.
Target: T1, GST-GGA3 fusion protein (UniProt Q9NZ52)
T1 sequence: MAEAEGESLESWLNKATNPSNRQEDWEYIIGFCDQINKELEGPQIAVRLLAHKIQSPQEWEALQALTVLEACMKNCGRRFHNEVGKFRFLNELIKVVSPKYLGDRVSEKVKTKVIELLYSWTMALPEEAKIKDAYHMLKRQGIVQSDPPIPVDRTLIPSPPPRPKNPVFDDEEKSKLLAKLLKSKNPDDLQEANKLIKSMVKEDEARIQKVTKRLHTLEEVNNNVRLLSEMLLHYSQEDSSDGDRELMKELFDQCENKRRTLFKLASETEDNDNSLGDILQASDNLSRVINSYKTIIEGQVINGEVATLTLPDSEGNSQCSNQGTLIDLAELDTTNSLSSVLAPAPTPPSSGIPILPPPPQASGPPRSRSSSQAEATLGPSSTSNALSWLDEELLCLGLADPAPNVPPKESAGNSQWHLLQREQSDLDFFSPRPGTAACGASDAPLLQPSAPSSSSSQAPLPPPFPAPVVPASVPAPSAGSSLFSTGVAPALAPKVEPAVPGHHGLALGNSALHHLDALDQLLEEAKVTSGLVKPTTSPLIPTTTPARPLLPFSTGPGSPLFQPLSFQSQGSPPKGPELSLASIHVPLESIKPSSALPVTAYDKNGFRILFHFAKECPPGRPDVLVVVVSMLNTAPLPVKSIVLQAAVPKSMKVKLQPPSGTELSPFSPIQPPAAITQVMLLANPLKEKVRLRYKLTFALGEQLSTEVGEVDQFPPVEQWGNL
Assay: pull-down; 60 ug GST-GGA3 pre-bound to glutathione-sepharose beads; 400 ul cell lysate in activity assay buffer, 4°C, 35 min, 9 rpm; washed, eluted in Laemmli buffer, blot for Arf1; lysates of MDAMB231 or A549 cells (adherent or suspended; DMSO or R428; siAXL or siArf1 knock-down); only the target purified

Chains of the proteins cited; added tags and fusions are not shown.
UniProt P84077: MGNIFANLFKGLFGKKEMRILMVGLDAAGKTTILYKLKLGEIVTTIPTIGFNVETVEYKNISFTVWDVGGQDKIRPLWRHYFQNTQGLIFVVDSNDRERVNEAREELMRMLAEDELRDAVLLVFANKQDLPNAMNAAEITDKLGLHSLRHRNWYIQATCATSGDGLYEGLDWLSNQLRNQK

binding: binds
Substance: Arf1 (from UniProt P84077 1-181)

Reference: paper PMC13225716
